# The supplement of paper PMC8728848
# Some of the results follow.
# How the values were obtained:
# Assay in all cases: glycan array binding signal (z-score within array); higher = stronger binding
# Details in all cases: glycan notation: IUPAC condensed, linker removed
# [1] = molecular target: Neu5Ac(a2-3)Gal(b1-4)GlcNAc(b1-6)GalNAc
# Procedure, shortened: (§1)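 Glycan array binding is given as a within-array Z-score, which can be read as non-binding when negative. The arrays, 3228 of them, came from the Consortium for Functional Glycomics database and were retained only where the protein sequence was available. Z-scores were averaged across arrays of the same protein sequence at different concentrations or buffers and across linkers.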
# [2] = molecular target: Neu5Ac(a2-3)Gal(b1-4)GlcNAc(b1-6)[Gal(b1-3)]GalNAc
# Procedure, shortened: as §1
# [3] = molecular target: Neu5Ac(a2-3)Gal(b1-4)GlcNAc(b1-6)[Neu5Ac(a2-3)Gal(b1-3)]GalNAc
# Procedure, shortened: as §1
# [4] = molecular target: Neu5Ac(a2-3)Gal(b1-4)GlcNAc6S
# Procedure, shortened: as §1
# [5] = molecular target: Neu5Ac(a2-3)Gal(b1-4)[Fuc(a1-3)]GlcNAc
# Procedure, shortened: as §1
# [6] = molecular target: Neu5Ac(a2-3)Gal(b1-4)[Fuc(a1-3)]GlcNAc(b1-2)Man
# Procedure, shortened: as §1
# [7] = molecular target: Neu5Ac(a2-3)Gal(b1-4)[Fuc(a1-3)]GlcNAc(b1-3)Gal
# Procedure, shortened: as §1
# [8] = molecular target: Neu5Ac(a2-3)Gal(b1-4)[Fuc(a1-3)]GlcNAc(b1-3)Gal(b1-4)GlcNAc
# Procedure, shortened: as §1
# [9] = molecular target: Neu5Ac(a2-3)Gal(b1-4)[Fuc(a1-3)]GlcNAc(b1-3)Gal(b1-4)[Fuc(a1-3)]GlcNAc(b1-3)Gal(b1-4)[Fuc(a1-3)]GlcNAc
# Procedure, shortened: as §1
# [10] = molecular target: Neu5Ac(a2-3)Gal(b1-4)[Fuc(a1-3)]GlcNAc(b1-3)GalNAc
# Procedure, shortened: as §1
# [11] = molecular target: Neu5Ac(a2-3)Gal(b1-4)[Fuc(a1-3)]GlcNAc(b1-6)[Gal(b1-3)]GalNAc
# Procedure, shortened: as §1
# [12] = molecular target: Neu5Ac(a2-3)Gal(b1-4)[Fuc(a1-3)]GlcNAc(b1-6)[Neu5Ac(a2-3)Gal(b1-3)]GalNAc
# Procedure, shortened: as §1
# [13] = molecular target: Neu5Ac(a2-3)Gal(b1-4)[Fuc(a1-3)]GlcNAc6S
# Procedure, shortened: as §1
# [14] = molecular target: Neu5Ac(a2-3)Gal6S(b1-4)GlcNAc
# Procedure, shortened: as §1
# [15] = molecular target: Neu5Ac(a2-3)Gal6S(b1-4)[Fuc(a1-3)]GlcNAc
# Procedure, shortened: as §1
# Neu5Ac(a2-3)GalNAc = molecular target: Neu5Ac(a2-3)GalNAc
# Procedure, shortened: as §1
# [16] = molecular target: Neu5Ac(a2-3)GalNAc(b1-4)GlcNAc
# Procedure, shortened: as §1
# [17] = molecular target: Neu5Ac(a2-3)[GalNAc(b1-4)]Gal(b1-4)Glc
# Procedure, shortened: as §1
# [18] = molecular target: Neu5Ac(a2-3)[GalNAc(b1-4)]Gal(b1-4)GlcNAc
# Procedure, shortened: as §1
# [19] = molecular target: Neu5Ac(a2-3)[GalNAc(b1-4)]Gal(b1-4)GlcNAc(b1-3)GalNAc
# Procedure, shortened: as §1
# [20] = molecular target: Neu5Ac(a2-3)[Neu5Ac(a2-6)]GalNAc
# Procedure, shortened: as §1
# Neu5Ac(a2-6)Gal = molecular target: Neu5Ac(a2-6)Gal
# Procedure, shortened: as §1
# [21] = molecular target: Neu5Ac(a2-6)Gal(b1-3)GlcNAc(b1-3)[Gal(b1-4)GlcNAc(b1-6)]Gal(b1-4)Glc
# Procedure, shortened: as §1
# Neu5Ac(a2-6)Gal(b1-4)Glc = molecular target: Neu5Ac(a2-6)Gal(b1-4)Glc
# Procedure, shortened: as §1
# [22] = molecular target: Neu5Ac(a2-6)Gal(b1-4)GlcNAc
# Procedure, shortened: as §1
# [23] = molecular target: Neu5Ac(a2-6)Gal(b1-4)GlcNAc(b1-2)Man
# Procedure, shortened: as §1
# [24] = molecular target: Neu5Ac(a2-6)Gal(b1-4)GlcNAc(b1-2)Man(a1-3)Man(b1-4)GlcNAc(b1-4)GlcNAc
# Procedure, shortened: as §1
# [25] = molecular target: Neu5Ac(a2-6)Gal(b1-4)GlcNAc(b1-2)Man(a1-3)[Gal(b1-4)GlcNAc(b1-2)Man(a1-6)]Man(b1-4)GlcNAc(b1-4)GlcNAc
# Procedure, shortened: as §1
# [26] = molecular target: Neu5Ac(a2-6)Gal(b1-4)GlcNAc(b1-2)Man(a1-3)[GlcNAc(b1-2)Man(a1-6)]Man(b1-4)GlcNAc(b1-4)GlcNAc
# Procedure, shortened: as §1
# [27] = molecular target: Neu5Ac(a2-6)Gal(b1-4)GlcNAc(b1-2)Man(a1-3)[GlcNAc(b1-4)][Neu5Ac(a2-6)Gal(b1-4)GlcNAc(b1-2)Man(a1-6)]Man(b1-4)GlcNAc(b1-4)GlcNAc
# Procedure, shortened: as §1
# [28] = molecular target: Neu5Ac(a2-6)Gal(b1-4)GlcNAc(b1-2)Man(a1-3)[Man(a1-6)]Man(b1-4)GlcNAc(b1-4)GlcNAc
# Procedure, shortened: as §1
binder,measurement,setting,value
PX14343G-pdi-535-24-535 (Parabacteroides distasonis) (protein) LDTVPKDQLAPSTTWQTEADAKGFIVGCYKDLLDGNTLLYLDCGSDIGYNNFPWEGFRPWGDGSLSSSNPGQILYDYKSIRKANTFLENVDKVTFSSDAVKANYVAQAKAIRAYKYFLMNWWYGGVPIISSYSSADEAKVERNTEQEVRDYIAKDLDEALAGIAEAPEARGYIAKGAVLAIKMREALYYGDWQKAKDAAKAIIDLKQYELDPDYTNLFKVSGVDSKEIILADQNIETLDGLGTIGQMYNNVDQGWSSIVPTQNLVDMYEMSDGLTKEESKTYDAKHPFANRDPRMAMTILYPGRDWRGDVLNTLDEKLQDGTVNKNFPTYTDNASKSALTWAKYLDPMDQYGDVWSSGACPIVFRYAEVLLTYAEAANELSGPSDEIYGYLNQIRQRVGMGEVDKAKYGTKDKLRELIRRERTVELAGEGLRRADIVRWQEDGKMLAEKVMNGDLLRVTGTINYGESEPTKRAEITGTAVIETRQFSSRNRYLPIPQTSMDKNPNLKQNPGY,glycan array binding signal (z-score),[1],-0.627
same,glycan array binding signal (z-score),[2],0.323
same,glycan array binding signal (z-score),[3],-0.381
same,glycan array binding signal (z-score),[4],-0.289
same,glycan array binding signal (z-score),[5],-0.975
same,glycan array binding signal (z-score),[6],-1.02
same,glycan array binding signal (z-score),[7],-0.539
same,glycan array binding signal (z-score),[8],0.199
same,glycan array binding signal (z-score),[9],0.205
same,glycan array binding signal (z-score),[10],0.588
same,glycan array binding signal (z-score),[11],0.282
same,glycan array binding signal (z-score),[12],1.44
same,glycan array binding signal (z-score),[13],-0.736
same,glycan array binding signal (z-score),[14],-1.29
same,glycan array binding signal (z-score),[15],-1.06
same,glycan array binding signal (z-score),Neu5Ac(a2-3)GalNAc,-0.944
same,glycan array binding signal (z-score),[16],-0.998
same,glycan array binding signal (z-score),[17],-0.473
same,glycan array binding signal (z-score),[18],0.297
same,glycan array binding signal (z-score),[19],-0.823
same,glycan array binding signal (z-score),[20],-0.178
same,glycan array binding signal (z-score),Neu5Ac(a2-6)Gal,1.09
same,glycan array binding signal (z-score),[21],-0.502
same,glycan array binding signal (z-score),Neu5Ac(a2-6)Gal(b1-4)Glc,-0.218
same,glycan array binding signal (z-score),[22],-0.993
same,glycan array binding signal (z-score),[23],0.416
same,glycan array binding signal (z-score),[24],-0.421
same,glycan array binding signal (z-score),[25],-0.539
same,glycan array binding signal (z-score),[26],-1.46
same,glycan array binding signal (z-score),[27],-0.688
same,glycan array binding signal (z-score),[28],-0.409

# 2 entries from above, set out differently.
binder | measurement | setting | value
PX14343G-pdi-535-24-535 (Parabacteroides distasonis) (protein) LDTVPKDQLAPSTTWQTEADAKGFIVGCYKDLLDGNTLLYLDCGSDIGYNNFPWEGFRPWGDGSLSSSNPGQILYDYKSIRKANTFLENVDKVTFSSDAVKANYVAQAKAIRAYKYFLMNWWYGGVPIISSYSSADEAKVERNTEQEVRDYIAKDLDEALAGIAEAPEARGYIAKGAVLAIKMREALYYGDWQKAKDAAKAIIDLKQYELDPDYTNLFKVSGVDSKEIILADQNIETLDGLGTIGQMYNNVDQGWSSIVPTQNLVDMYEMSDGLTKEESKTYDAKHPFANRDPRMAMTILYPGRDWRGDVLNTLDEKLQDGTVNKNFPTYTDNASKSALTWAKYLDPMDQYGDVWSSGACPIVFRYAEVLLTYAEAANELSGPSDEIYGYLNQIRQRVGMGEVDKAKYGTKDKLRELIRRERTVELAGEGLRRADIVRWQEDGKMLAEKVMNGDLLRVTGTINYGESEPTKRAEITGTAVIETRQFSSRNRYLPIPQTSMDKNPNLKQNPGY | glycan array binding signal (z-score) | Neu5Ac(a2-3)GalNAc | -0.944
same | glycan array binding signal (z-score) | [16] | -0.998
